The list does not hold the whole screen: it gathers tests that were run many times, whatever their T/C, doses with no T/C, and many T/C values between a quarter and a half above the control. Other doses and runs of a compound stand elsewhere. T/C gives the treated animals as a percentage of the vehicle group. Some entries give survivors of the animals treated and no T/C: the source holds a T/C of zero for them, seemingly a mark for toxic or unscored doses. Some survivor counts are full or nearly so, which does not show that the dose was tolerated: survival well below the control is almost never listed, so the zero probably covers shortened survival too. Survivors were counted at the toxicity check, usually on the fifth day, unless a day is given; later deaths do not show. Schedules are NCI's codes, read here as Q, the interval in days (D) or hours (H), X, the number of doses. Some entries were tested several times; the values are given in rising order. Some molecules as drawn cover several salts, stereoisomers or complexes of the source; a dose is that of the sample tested. Brackets with × say how often a value occurs here. For survival time, the PubChem record calls one and a half times the control and up active, and a quarter to a half above the control has no call in these data; cut-offs in other NCI protocols can differ. Some T/C values carry the count of animals alive at the toxicity check (mostly the fifth day); where none is given, no animal had died by that day.

This is an account of results in PubChem BioAssay AID256 (DTP/NCI, 2004).

This assay concerns CD2F1 mice, L1210 leukemia ip, survival T/C. Kind of assay: NCI In Vivo Anticancer Drug Screen. Data for tumor model L1210 Leukemia (intraperitoneal) in CD2F1 (CDF1) mice. Particulars: higher T/C = longer survival. An outline of the steps:
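Tumor-bearing mice (transplanted tumor) were split into treated and vehicle control groups, and the measured endpoint of each treated group was divided by that of its vehicle controls.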

Where [1] appears, read: T/C endpoint: mean survival time, dose: 200.0 mg/kg/injection, schedule: Q01DX009 (ip), vehicle: saline.
[2] abbreviates: T/C endpoint: mean survival time, dose: 400.0 mg/kg/injection, schedule: Q01DX009 (ip), vehicle: saline.
The mark [3] stands for this setting: T/C endpoint: mean survival time, dose: 200.0 mg/kg/injection, schedule: Q04DX003 (ip), vehicle: saline.
Where [4] appears, read: T/C endpoint: mean survival time, dose: 400.0 mg/kg/injection, schedule: Q04DX003 (ip), vehicle: saline.
Setting [5] is: T/C endpoint: mean survival time, dose: 400.0 mg/kg/injection, schedule: Q04DX002 (ip), vehicle: saline.
Where [6] appears, read: T/C endpoint: mean survival time, dose: 100.0 mg/kg/injection, schedule: Q04DX003 (ip), vehicle: saline.
The mark [7] stands for this setting: T/C endpoint: mean survival time, dose: 50.0 mg/kg/injection, schedule: Q04DX003 (ip), vehicle: saline with Tween-80.
[8] abbreviates: T/C endpoint: mean survival time, dose: 200.0 mg/kg/injection, schedule: Q01DX009 (ip), vehicle: saline with Tween-80.
[9] abbreviates: T/C endpoint: mean survival time, dose: 300.0 mg/kg/injection, schedule: Q01DX001 (ip), vehicle: saline.

For the molecule `N/C(=N\O)c1cn(C2OC(CO)C(O)C2O)c2ncnc(N)c12` (stereo not given), the T/C reads like this: (T/C endpoint: mean survival time, dose: 2.0 mg/kg/injection, schedule: Q01DX007 (ip), vehicle: saline) 139 % of control; (T/C endpoint: mean survival time, dose: 2.0 mg/kg/injection, schedule: Q01DX009 (ip), vehicle: saline) 137 % of control; (T/C endpoint: mean survival time, dose: 2.0 mg/kg/injection, schedule: Q03DX003 (ip), vehicle: saline) 130 % of control; (T/C endpoint: mean survival time, dose: 2.0 mg/kg/injection, schedule: Q04DX003 (ip), vehicle: saline) 127 % of control; (T/C endpoint: mean survival time, dose: 4.0 mg/kg/injection, schedule: Q01DX007 (ip), vehicle: saline) 139 % of control; (T/C endpoint: mean survival time, dose: 4.0 mg/kg/injection, schedule: Q01DX009 (ip), vehicle: saline) 133 % of control [5 of 6 alive]. Also, the T/C was 127 % of control (T/C endpoint: mean survival time, dose: 4.0 mg/kg/injection, schedule: Q03DX003 (ip), vehicle: saline); 127 % of control (T/C endpoint: mean survival time, dose: 4.0 mg/kg/injection, schedule: Q04DX003 (ip), vehicle: saline); 129 % of control (T/C endpoint: mean survival time, dose: 8.0 mg/kg/injection, schedule: Q01DX009 (ip), vehicle: saline); 125 % of control (T/C endpoint: mean survival time, dose: 8.0 mg/kg/injection, schedule: Q03DX003 (ip), vehicle: saline); 130 % of control (T/C endpoint: mean survival time, dose: 8.0 mg/kg/injection, schedule: Q04DX003 (ip), vehicle: saline).
Turning to `Cc1cc(OCC2=NCCN2)c(C)c(C)c1Cl`, the survivor count (T/C endpoint: mean survival time, dose: 100.0 mg/kg/injection, schedule: Q04DX002 (ip), vehicle: saline with Tween-80) is recorded as 0 of 3; the survivor count (T/C endpoint: mean survival time, dose: 200.0 mg/kg/injection, schedule: Q04DX002 (ip), vehicle: saline with Tween-80) is recorded as 0 of 3; the survivor count (T/C endpoint: mean survival time, dose: 400.0 mg/kg/injection, schedule: Q04DX002 (ip), vehicle: saline with Tween-80) is reported as 0 of 3.
On to `CNN=C1CCCC1`, for which the survivor count is 3 of 3 (T/C endpoint: mean survival time, dose: 50.0 mg/kg/injection, schedule: Q01DX009 (ip), vehicle: saline); 0 of 3 (T/C endpoint: mean survival time, dose: 100.0 mg/kg/injection, schedule: Q01DX009 (ip), vehicle: saline); 0 of 3 under setting [1]; 0 of 3 under setting [2].
On to `CN(C)c1ccc(N=Nc2ccccc2)cc1`, for which the survivor count is, setting by setting: (T/C endpoint: mean survival time, dose: 125.0 mg/kg/injection, schedule: Q01DX009 (ip), vehicle: saline with Tween-80) 6 of 6; (T/C endpoint: mean survival time, dose: 250.0 mg/kg/injection, schedule: Q04DX003 (ip), vehicle: saline with Tween-80) 4 of 6.
As for `CCCCN(CCCC)CCNc1ccc(C)c2sc3ccccc3c(=O)c12`, under setting [3], the survivor count is on record as 6 of 6.
For `C=Cc1cc(OC)c2c(c1)c(=O)oc1c2cc(OC)c2c(O)ccc(C3OC(C(C)O)C(O)C3O)c21` (stereo not given), the survivor count (T/C endpoint: median survival time, dose: 200.0 mg/kg/injection, schedule: Q01DX009 (ip), vehicle: Klucel (hydroxypropylcellulose) (HPC)) is given as 2 of 6.
For the molecule `COCCC1(CN2c3ccccc3Sc3ccc(Cl)cc32)CCN(C)C1` (stereo not given), the survivor count under setting [4] is listed as 0 of 6.
Consider `CCCCCCCCCCCCCCCC(=O)Nc1ccn(C2OC(CO)C(O)C2O)c(=O)n1` (stereo not given), for which the survivor count is 6 of 6 under setting [1]; 3 of 3 (T/C endpoint: mean survival time, dose: 200.0 mg/kg/injection, schedule: Q04DX002 (ip), vehicle: saline); 10 of 10 and 6 of 6 under setting [2]; 3 of 3 under setting [5]. The T/C under setting [5] was 132 % of control [5 of 6 alive].
Regarding `O=CN(O)CC(=O)O.[Ni]`, the survivor count by setting is: (T/C endpoint: mean survival time, dose: 50.0 mg/kg/injection, schedule: Q04DX003 (ip), vehicle: saline) 4 of 6; under setting [6], 0 of 6; under setting [3], 0 of 6; under setting [4], 0 of 6.
Turning to `O=C(O)c1cc[c]([Hg][S]c2ncnc3nc[nH]c23)cc1`, the T/C is, setting by setting: (T/C endpoint: mean survival time, dose: 16.5 mg/kg/injection, schedule: Q01DX009 (ip), vehicle: saline sonified) 132 % of control; (T/C endpoint: mean survival time, dose: 25.0 mg/kg/injection, schedule: Q01DX009 (ip), vehicle: saline sonified, evaluated on day 20) 136 % of control; (T/C endpoint: mean survival time, dose: 25.0 mg/kg/injection, schedule: Q01DX009 (ip), vehicle: saline sonified, evaluated on day 30) 135 % of control; (T/C endpoint: mean survival time, dose: 50.0 mg/kg/injection, schedule: Q01DX009 (ip), vehicle: saline sonified) 136 % of control; under setting [7], 129 % of control. In addition, the survivor count reads like this: (T/C endpoint: mean survival time, dose: 75.0 mg/kg/injection, schedule: Q04DX003 (ip), vehicle: saline sonified) 2 of 6; (T/C endpoint: mean survival time, dose: 200.0 mg/kg/injection, schedule: Q04DX003 (ip), vehicle: saline with Tween-80) 0 of 6.
With `CC(=O)Nc1cccc(N)c1`, the survivor count under setting [3] is 2 of 6 and the survivor count under setting [4] is 0 of 6.
Turning to `CC(/C=C/C1OC(=O)C=CC1C)=C\C(C)C/C=C/C(C)=C/C(C)C(=O)C(C)C(O)C(C)C/C(C)=C/C(=O)O` (stereo not given), the T/C (T/C endpoint: median survival time, dose: 41.7 micrograms/kg/injection, schedule: Q01DX009 (ip), vehicle: saline + alcohol) was 131 % of control and the T/C (T/C endpoint: median survival time, dose: 69.4 micrograms/kg/injection, schedule: Q01DX009 (ip), vehicle: saline + alcohol) is 128 % of control.
With `C=CCN(CC=C)Cc1cccc(N(CCCl)CCCl)c1` (tested in a mixture with another compound), under “T/C endpoint: mean survival time, dose: 200.0 mg/kg/injection, schedule: Q01DX009 (ip), vehicle: Klucel (hydroxypropylcellulose) (HPC)”, the survivor count is 3 of 3.
As for `Cc1cccc(Cl)c1NC(=O)C(C)N1CCCC1` (stereo not given), the survivor count is listed as 5 of 6 (T/C endpoint: mean survival time, dose: 100.0 mg/kg/injection, schedule: Q04DX003 (ip), vehicle: saline sonified); 2 of 6 (T/C endpoint: mean survival time, dose: 200.0 mg/kg/injection, schedule: Q04DX003 (ip), vehicle: saline sonified); 0 of 6 (T/C endpoint: mean survival time, dose: 400.0 mg/kg/injection, schedule: Q04DX003 (ip), vehicle: saline sonified).
With `CCOC(=O)C(=O)C1CCc2c(ccc3ccccc23)C1=O` (stereo not given), the survivor count (T/C endpoint: mean survival time, dose: 400.0 mg/kg/injection, schedule: Q01DX001 (ip), vehicle: Klucel (hydroxypropylcellulose) (HPC)) is 6 of 6.
As for `O=C1c2cc([N+](=O)[O-])ccc2-c2cc(Br)ccc21`, the survivor count (T/C endpoint: mean survival time, dose: 400.0 mg/kg/injection, schedule: Q04DX003 (ip), vehicle: saline with Tween-80) is on record as 0 of 6.
As for `Nc1nc(NCCc2ccccc2)c2ncn(C3OC(CO)C(O)C3O)c2n1` (stereo not given), the survivor count (T/C endpoint: mean survival time, dose: 200.0 mg/kg/injection, schedule: Q01DX005 (ip), vehicle: other) was 2 of 6.
On to `CCN(CC)C(=O)[S-].CCN(CC)C(=O)[S-].[Ni+2]`, for which the survivor count is 2 of 6 (T/C endpoint: mean survival time, dose: 100.0 mg/kg/injection, schedule: Q01DX009 (ip), vehicle: saline with Tween-80); 3 of 6 under setting [8]; 0 of 6 (T/C endpoint: mean survival time, dose: 400.0 mg/kg/injection, schedule: Q01DX009 (ip), vehicle: saline with Tween-80).
Turning to `CCOc1ccc2c(c1)c(C)cc(C)[n+]2CC`, the survivor count (T/C endpoint: mean survival time, dose: 25.0 mg/kg/injection, schedule: Q04DX003 (ip), vehicle: saline with Tween-80) is on record as 3 of 3; the survivor count under setting [7] was 0 of 3; the survivor count (T/C endpoint: mean survival time, dose: 100.0 mg/kg/injection, schedule: Q04DX003 (ip), vehicle: saline with Tween-80) was 0 of 3.
Regarding `CCOC1CC2c3ccccc3C1c1cccc[n+]12` (stereo not given), the survivor count runs as follows: under setting [6], 5 of 6; under setting [3], 1 of 6 (2×); under setting [4], 0 of 6 and 1 of 6.
For `CC(Br)C(=O)OC1C=CCCC1` (stereo not given), the survivor count under setting [8] was 1 of 3.
For `CCCCCCCC1C(=O)OC2CC3C(C)=CC(=O)C(O)C3(C)C3C4(O)OCC23C1C(C)C4O` (stereo not given), where the note is “T/C endpoint: median survival time, dose: 40.0 mg/kg/injection, schedule: Q01DX005 (ip), vehicle: Klucel (hydroxypropylcellulose) (HPC)”, the survivor count is recorded as 2 of 6.
For `NCCCCOc1ccc([N+](=O)[O-])cc1Cl`, under setting [9], the survivor count is on record as 3 of 6.
Regarding `CC1CN(Cl)C(=O)N(Cl)C1=O` (stereo not given), the survivor count reads like this: (T/C endpoint: mean survival time, dose: 75.0 mg/kg/injection, schedule: Q01DX001 (ip), vehicle: saline) 0 of 6; (T/C endpoint: mean survival time, dose: 150.0 mg/kg/injection, schedule: Q01DX001 (ip), vehicle: saline) 0 of 6; under setting [9], 0 of 6.
